Measurements published in the supplement of paper PMC6411743.
± gives the standard deviation of the averaged measurements. This is one part of the list.

The chains behind the UniProt entries cited, without tags or fusion partners. Where a name states a change or a piece, a line headed by the entry shows the natural chain unless it says otherwise.
UniProt P62253: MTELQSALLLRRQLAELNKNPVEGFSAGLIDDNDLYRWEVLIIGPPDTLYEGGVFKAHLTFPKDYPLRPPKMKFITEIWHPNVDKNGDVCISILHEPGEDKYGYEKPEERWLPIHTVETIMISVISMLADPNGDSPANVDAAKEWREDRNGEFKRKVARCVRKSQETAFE
UniProt P62258: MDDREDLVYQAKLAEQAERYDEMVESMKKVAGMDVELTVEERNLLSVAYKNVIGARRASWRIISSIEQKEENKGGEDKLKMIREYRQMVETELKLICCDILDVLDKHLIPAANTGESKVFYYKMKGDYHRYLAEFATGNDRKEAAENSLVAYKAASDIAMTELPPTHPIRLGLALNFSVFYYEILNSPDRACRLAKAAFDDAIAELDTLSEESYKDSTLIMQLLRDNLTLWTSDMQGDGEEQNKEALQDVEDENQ
UniProt P61088: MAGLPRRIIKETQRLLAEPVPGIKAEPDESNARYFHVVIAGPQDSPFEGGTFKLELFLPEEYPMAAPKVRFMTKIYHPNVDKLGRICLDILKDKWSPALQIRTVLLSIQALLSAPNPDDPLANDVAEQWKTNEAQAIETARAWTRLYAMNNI
UniProt P61962: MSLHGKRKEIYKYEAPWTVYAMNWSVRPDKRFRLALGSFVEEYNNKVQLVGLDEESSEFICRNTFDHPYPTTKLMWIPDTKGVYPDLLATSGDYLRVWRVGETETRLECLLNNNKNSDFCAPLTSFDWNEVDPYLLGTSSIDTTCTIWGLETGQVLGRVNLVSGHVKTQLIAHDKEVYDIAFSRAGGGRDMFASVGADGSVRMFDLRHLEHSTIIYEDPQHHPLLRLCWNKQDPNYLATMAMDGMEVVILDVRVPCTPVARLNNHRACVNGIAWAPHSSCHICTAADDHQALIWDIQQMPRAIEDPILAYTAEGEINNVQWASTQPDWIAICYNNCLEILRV
UniProt P62318, whole entry: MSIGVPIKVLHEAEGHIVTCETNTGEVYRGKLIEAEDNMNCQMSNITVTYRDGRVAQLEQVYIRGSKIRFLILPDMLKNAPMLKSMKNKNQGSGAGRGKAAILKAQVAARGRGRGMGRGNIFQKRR
UniProt P62140, whole entry: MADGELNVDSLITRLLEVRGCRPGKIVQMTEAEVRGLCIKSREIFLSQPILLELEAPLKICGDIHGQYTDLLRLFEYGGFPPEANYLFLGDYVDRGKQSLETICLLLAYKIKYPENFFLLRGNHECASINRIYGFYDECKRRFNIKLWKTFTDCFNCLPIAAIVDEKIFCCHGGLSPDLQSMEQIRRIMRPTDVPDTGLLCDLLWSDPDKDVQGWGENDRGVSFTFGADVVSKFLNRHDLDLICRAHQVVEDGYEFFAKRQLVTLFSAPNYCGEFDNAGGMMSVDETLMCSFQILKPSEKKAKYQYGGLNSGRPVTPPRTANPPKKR
UniProt P50402: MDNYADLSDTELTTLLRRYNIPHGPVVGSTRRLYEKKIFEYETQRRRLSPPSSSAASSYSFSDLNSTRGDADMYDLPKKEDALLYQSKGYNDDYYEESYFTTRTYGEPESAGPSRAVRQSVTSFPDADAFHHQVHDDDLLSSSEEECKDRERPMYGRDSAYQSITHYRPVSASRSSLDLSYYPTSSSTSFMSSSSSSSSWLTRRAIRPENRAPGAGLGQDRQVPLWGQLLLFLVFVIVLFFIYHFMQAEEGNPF
UniProt P51649: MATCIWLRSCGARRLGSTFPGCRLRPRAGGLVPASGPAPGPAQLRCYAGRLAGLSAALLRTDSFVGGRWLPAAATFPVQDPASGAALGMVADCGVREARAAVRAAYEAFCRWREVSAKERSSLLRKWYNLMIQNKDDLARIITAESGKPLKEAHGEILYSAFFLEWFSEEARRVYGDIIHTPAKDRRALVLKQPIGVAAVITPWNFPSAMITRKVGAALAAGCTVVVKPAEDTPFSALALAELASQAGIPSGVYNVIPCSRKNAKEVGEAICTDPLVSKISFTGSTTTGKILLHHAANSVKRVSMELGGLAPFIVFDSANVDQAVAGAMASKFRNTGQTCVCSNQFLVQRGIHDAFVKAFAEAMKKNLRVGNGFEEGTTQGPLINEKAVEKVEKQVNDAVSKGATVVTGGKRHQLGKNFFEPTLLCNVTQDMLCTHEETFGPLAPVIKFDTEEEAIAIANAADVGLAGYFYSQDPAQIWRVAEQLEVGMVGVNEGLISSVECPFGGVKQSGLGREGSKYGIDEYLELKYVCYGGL
UniProt P86791: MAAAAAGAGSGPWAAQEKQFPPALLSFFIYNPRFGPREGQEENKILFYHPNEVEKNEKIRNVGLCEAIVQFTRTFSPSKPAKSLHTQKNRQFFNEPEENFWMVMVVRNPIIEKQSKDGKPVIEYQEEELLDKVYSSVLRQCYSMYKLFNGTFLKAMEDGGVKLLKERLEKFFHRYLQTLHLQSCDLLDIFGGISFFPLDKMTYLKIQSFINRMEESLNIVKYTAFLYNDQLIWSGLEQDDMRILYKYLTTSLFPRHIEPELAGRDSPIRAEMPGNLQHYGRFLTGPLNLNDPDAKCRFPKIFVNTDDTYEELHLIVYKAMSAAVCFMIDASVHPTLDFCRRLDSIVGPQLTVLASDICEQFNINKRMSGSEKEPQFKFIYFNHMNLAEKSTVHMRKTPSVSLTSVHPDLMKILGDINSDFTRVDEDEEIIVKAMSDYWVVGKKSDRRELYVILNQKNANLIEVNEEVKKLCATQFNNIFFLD
UniProt P53367: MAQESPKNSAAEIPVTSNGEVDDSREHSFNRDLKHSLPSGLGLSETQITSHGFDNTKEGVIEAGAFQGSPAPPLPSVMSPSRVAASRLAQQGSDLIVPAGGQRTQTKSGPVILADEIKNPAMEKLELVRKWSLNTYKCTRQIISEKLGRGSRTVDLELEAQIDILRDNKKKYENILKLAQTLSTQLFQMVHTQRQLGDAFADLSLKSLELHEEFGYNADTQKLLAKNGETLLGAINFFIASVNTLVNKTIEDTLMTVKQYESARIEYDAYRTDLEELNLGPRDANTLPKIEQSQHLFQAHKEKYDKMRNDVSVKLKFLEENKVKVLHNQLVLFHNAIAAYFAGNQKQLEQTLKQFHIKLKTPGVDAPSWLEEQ
UniProt P80217: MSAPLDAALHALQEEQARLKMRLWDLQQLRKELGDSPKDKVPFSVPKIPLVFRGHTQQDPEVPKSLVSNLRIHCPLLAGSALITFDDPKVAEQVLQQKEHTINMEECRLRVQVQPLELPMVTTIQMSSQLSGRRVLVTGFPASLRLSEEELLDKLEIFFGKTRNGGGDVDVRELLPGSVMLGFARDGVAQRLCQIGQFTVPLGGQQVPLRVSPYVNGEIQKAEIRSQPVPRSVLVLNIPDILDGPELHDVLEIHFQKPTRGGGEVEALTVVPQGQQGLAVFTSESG
UniProt P51003: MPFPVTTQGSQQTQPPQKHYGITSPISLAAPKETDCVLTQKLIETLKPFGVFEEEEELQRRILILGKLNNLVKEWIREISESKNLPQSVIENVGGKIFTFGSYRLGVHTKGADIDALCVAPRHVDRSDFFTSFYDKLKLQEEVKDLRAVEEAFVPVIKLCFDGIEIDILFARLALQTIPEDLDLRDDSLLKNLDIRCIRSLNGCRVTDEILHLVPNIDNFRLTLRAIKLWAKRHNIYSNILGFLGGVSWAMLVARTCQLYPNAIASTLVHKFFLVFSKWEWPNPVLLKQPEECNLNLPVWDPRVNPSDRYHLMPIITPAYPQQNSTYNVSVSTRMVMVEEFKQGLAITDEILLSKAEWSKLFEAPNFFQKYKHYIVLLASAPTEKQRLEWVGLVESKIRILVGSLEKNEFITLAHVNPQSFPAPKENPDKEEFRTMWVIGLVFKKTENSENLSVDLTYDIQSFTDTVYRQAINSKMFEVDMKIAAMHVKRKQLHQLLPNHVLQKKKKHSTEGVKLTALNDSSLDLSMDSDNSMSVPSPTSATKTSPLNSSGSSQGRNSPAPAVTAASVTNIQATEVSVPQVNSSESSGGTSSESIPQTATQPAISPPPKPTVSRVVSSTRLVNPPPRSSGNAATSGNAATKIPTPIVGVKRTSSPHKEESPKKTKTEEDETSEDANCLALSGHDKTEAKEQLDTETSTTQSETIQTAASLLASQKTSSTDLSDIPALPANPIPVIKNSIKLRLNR
UniProt P78345: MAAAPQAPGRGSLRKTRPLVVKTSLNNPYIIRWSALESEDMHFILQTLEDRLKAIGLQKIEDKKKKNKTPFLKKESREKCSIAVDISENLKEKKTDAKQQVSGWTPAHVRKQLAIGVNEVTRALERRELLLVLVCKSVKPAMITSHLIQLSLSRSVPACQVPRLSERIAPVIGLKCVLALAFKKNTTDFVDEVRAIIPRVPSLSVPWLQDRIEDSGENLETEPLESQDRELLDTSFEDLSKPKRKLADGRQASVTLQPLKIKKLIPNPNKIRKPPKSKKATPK
UniProt P52655, whole entry: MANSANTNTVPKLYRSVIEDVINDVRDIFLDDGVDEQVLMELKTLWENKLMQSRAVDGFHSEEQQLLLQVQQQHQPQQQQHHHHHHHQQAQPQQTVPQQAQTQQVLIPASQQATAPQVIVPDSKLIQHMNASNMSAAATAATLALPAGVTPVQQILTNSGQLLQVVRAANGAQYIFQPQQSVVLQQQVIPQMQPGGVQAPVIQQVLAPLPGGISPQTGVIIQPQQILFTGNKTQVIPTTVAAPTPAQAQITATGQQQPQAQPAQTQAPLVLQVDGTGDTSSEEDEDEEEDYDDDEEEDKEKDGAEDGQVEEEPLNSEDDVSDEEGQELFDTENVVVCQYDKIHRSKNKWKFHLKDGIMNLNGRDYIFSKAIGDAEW
UniProt P56192: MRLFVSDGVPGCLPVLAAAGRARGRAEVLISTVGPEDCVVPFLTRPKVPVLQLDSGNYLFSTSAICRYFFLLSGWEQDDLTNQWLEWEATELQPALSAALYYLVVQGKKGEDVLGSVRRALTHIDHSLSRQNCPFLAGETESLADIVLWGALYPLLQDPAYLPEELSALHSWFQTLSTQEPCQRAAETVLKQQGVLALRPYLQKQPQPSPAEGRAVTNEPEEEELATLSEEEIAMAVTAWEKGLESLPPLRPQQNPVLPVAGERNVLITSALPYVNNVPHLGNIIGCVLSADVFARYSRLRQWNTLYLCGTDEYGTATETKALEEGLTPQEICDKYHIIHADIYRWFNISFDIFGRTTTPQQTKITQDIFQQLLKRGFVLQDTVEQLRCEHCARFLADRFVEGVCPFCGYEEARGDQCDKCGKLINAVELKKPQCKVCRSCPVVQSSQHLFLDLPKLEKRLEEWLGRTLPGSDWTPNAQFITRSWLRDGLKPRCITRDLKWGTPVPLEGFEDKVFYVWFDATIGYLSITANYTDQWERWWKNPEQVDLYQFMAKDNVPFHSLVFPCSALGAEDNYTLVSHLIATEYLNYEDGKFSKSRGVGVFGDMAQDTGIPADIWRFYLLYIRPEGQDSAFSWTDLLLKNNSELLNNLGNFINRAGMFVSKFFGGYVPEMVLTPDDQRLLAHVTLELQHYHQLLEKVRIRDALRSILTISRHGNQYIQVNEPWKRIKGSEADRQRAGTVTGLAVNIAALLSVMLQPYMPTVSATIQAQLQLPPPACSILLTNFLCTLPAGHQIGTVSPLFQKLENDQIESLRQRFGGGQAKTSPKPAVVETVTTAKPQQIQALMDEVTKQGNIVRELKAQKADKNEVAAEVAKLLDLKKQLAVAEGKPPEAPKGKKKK
UniProt P53597: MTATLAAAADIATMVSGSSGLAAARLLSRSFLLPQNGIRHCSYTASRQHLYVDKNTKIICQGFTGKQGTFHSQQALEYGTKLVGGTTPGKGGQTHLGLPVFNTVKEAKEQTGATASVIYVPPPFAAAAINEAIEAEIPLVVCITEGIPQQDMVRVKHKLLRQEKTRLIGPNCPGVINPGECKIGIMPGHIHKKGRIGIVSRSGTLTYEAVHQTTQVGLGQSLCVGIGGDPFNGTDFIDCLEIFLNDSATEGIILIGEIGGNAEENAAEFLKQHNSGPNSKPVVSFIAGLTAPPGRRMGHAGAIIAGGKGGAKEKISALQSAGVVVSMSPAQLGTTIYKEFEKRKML
UniProt P53007, whole entry, looked up: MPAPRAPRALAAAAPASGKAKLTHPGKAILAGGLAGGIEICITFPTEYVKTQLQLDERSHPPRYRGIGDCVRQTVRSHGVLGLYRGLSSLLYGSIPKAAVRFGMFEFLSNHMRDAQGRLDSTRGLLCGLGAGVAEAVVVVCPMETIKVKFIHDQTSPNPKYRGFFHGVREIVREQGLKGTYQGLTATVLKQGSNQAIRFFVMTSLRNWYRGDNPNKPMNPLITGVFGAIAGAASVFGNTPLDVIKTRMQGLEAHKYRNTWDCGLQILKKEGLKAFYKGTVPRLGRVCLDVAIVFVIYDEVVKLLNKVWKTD
UniProt P50749: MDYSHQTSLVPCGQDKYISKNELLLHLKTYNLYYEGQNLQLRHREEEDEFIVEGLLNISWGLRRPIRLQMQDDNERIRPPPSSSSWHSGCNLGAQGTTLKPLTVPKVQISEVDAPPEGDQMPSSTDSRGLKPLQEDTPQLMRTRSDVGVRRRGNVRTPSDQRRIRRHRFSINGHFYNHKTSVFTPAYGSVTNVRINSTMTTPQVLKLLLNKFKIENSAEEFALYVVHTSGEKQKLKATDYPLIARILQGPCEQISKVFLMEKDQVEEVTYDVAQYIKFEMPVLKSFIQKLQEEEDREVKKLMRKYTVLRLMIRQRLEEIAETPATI

Compound: Nc1nc2c(ncn2[C@@H]2O[C@H](COP(=O)(O)OP(=O)(O)OP(=O)(O)O)[C@@H](O)[C@H]2O)c(=O)[nH]1 [guanosine triphosphate]
Experiment: NP40-soluble protein abundance relative to vehicle (solubility fold change) (ratio); higher = more soluble protein in presence of GTP
How it was run: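 Eight concentrations, 0.1 to 10 mM, were tested on Jurkat crude lysate for 10 min at room temperature and then 3 min at 37 °C, in three independent experiments. The lysate was solubilised with 0.8% NP40 and benzonase, ultracentrifuged, and the supernatant TMT-labelled for LC-MS/MS. Each value is the fold change against the detergent-processed vehicle in its own replicate, from vsn-normalised intensities.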

Row | Target | NP40-soluble protein abundance (concentration: 0.1mM) | NP40-soluble protein abundance (concentration: 0.5mM) | NP40-soluble protein abundance (concentration: 1mM) | NP40-soluble protein abundance (concentration: 2mM) | NP40-soluble protein abundance (concentration: 4mM) | NP40-soluble protein abundance (concentration: 6mM) | NP40-soluble protein abundance (concentration: 8mM) | NP40-soluble protein abundance (concentration: 10mM)
1 | PEX3 (UniProt P56589) | 0.988 ± 0.025 | 1.05 ± 0.042 | 1 ± 0.017 | 0.923 ± 0.042 | 0.879 ± 0.03 | 0.951 ± 0.019 | 0.9369 ± 0.00049 | 0.8668 ± 0.0034
2 | UniProt P62253 | 0.994 ± 0.052 | 0.956 ± 0.05 | 0.955 ± 0.058 | 0.886 ± 0.086 | 0.876 ± 0.043 | 0.843 ± 0.063 | 0.899 ± 0.071 | 0.83 ± 0.075
3 | UniProt P62258 | 0.888 ± 0.069 | 0.832 ± 0.047 | 0.989 ± 0.066 | 0.943 ± 0.059 | 0.933 ± 0.075 | 0.936 ± 0.066 | 0.884 ± 0.12 | 0.917 ± 0.057
4 | UniProt P61088 | 0.948 ± 0.023 | 0.926 ± 0.043 | 0.956 ± 0.048 | 0.923 ± 0.027 | 0.904 ± 0.024 | 0.904 ± 0.05 | 0.827 ± 0.11 | 0.874 ± 0.078
5 | PAFAH1B2 (UniProt P68402) | 0.948 ± 0.021 | 0.932 ± 0.056 | 0.866 ± 0.058 | 0.868 ± 0.053 | 0.8194 ± 0.0068 | 0.851 ± 0.021 | 0.776 ± 0.058 | 0.811 ± 0.047
6 | UniProt P61962 | 1.02 ± 0.081 | 1.08 ± 0.089 | 0.988 ± 0.07 | 1.04 ± 0.1 | 1.02 ± 0.057 | 1.01 ± 0.092 | 0.946 ± 0.021 | 0.964 ± 0.03
7 | ADAM17 (UniProt P78536) | 0.992 ± 0.042 | 1.04 ± 0.083 | 1.02 ± 0.076 | 1.01 ± 0.035 | 0.97 ± 0.048 | 0.991 ± 0.13 | 0.948 ± 0.058 | 1.02 ± 0.082
8 | UniProt P62318 and related entries | 1.11 ± 0.16 | 1.04 ± 0.016 | 1.24 ± 0.17 | 1.17 ± 0.1 | 1.44 ± 0.26 | 1.33 ± 0.057 | 1.55 ± 0.3 | 1.39 ± 0.11
9 | UniProt P62140 | 1.02 ± 0.043 | 0.959 ± 0.014 | 0.951 ± 0.027 | 0.945 ± 0.044 | 0.981 ± 0.042 | 0.942 ± 0.016 | 0.987 ± 0.034 | 0.961 ± 0.025
10 | EMD (UniProt P50402) | 0.994 ± 0.055 | 1.02 ± 0.043 | 1.09 ± 0.057 | 1.09 ± 0.046 | 1.11 ± 0.082 | 1.06 ± 0.08 | 1.12 ± 0.055 | 1.13 ± 0.038
11 | UniProt P51649 and related entries | 1.02 ± 0.03 | 1.03 ± 0.026 | 0.967 ± 0.014 | 0.965 ± 0.03 | 0.946 ± 0.031 | 0.938 ± 0.038 | 0.9406 ± 0.0074 | 0.906 ± 0.031
12 | MRPS5 (UniProt P82675) | 1.09 ± 0.075 | 1.16 ± 0.17 | 1.23 ± 0.24 | 1.32 ± 0.32 | 1.36 ± 0.34 | 1.28 ± 0.31 | 1.23 ± 0.3 | 1.18 ± 0.29
13 | UniProt P53609 and related entries | 1.02 ± 0.025 | 1.02 ± 0.05 | 0.942 ± 0.019 | 0.901 ± 0.039 | 0.885 ± 0.011 | 0.887 ± 0.024 | 0.861 ± 0.071 | 0.857 ± 0.058
14 | P86790 and related entries (UniProt P86791+P86790) | 1.06 ± 0.015 | 1.06 ± 0.072 | 1.03 ± 0.063 | 0.99 ± 0.038 | 1.01 ± 0.068 | 0.948 ± 0.038 | 0.943 ± 0.029 | 0.924 ± 0.0097
15 | UniProt P53367 and related entries | 1.04 ± 0.057 | 0.987 ± 0.059 | 1.01 ± 0.071 | 0.947 ± 0.039 | 0.94 ± 0.07 | 0.953 ± 0.069 | 0.925 ± 0.047 | 0.898 ± 0.038
16 | UniProt P52333 and related entries | 0.957 ± 0.079 | 0.974 ± 0.021 | 0.947 ± 0.012 | 0.91668 ± 0.00076 | 0.89192 ± 0.00027 | 0.9404 ± 0.0068 | 0.885 ± 0.06 | 0.879 ± 0.024
17 | UniProt P80217 and related entries | 0.97 ± 0.043 | 1.01 ± 0.063 | 0.926 ± 0.044 | 0.902 ± 0.076 | 0.877 ± 0.059 | 0.911 ± 0.067 | 0.934 ± 0.052 | 0.938 ± 0.051
18 | UniProt P54819 and related entries | 0.881 ± 0.047 | 0.854 ± 0.028 | 1 ± 0.072 | 0.974 ± 0.075 | 0.949 ± 0.073 | 0.942 ± 0.095 | 0.901 ± 0.13 | 0.97 ± 0.082
19 | MRPS10 (UniProt P82664) | 1.04 ± 0.12 | 1.01 ± 0.066 | 1.26 ± 0.31 | 1.38 ± 0.34 | 1.4 ± 0.32 | 1.3 ± 0.32 | 1.29 ± 0.28 | 1.25 ± 0.28
20 | UniProt P84095 | 0.968 ± 0.043 | 0.992 ± 0.054 | 0.902 ± 0.062 | 0.887 ± 0.065 | 0.851 ± 0.081 | 0.888 ± 0.077 | 0.865 ± 0.069 | 0.844 ± 0.092
21 | PAPOLA (UniProt P51003) | 0.949 ± 0.047 | 0.991 ± 0.043 | 0.889 ± 0.052 | 0.919 ± 0.058 | 0.868 ± 0.042 | 0.8908 ± 0.0041 | 0.871 ± 0.027 | 0.904 ± 0.061
22 | UniProt P62495 | 0.975 ± 0.033 | 1.02 ± 0.048 | 0.903 ± 0.027 | 0.898 ± 0.061 | 0.842 ± 0.048 | 0.893 ± 0.054 | 0.832 ± 0.025 | 0.81 ± 0.086
23 | RPP38 (UniProt P78345) | 0.917 ± 0.1 | 0.912 ± 0.056 | 1.06 ± 0.089 | 1.13 ± 0.045 | 1.14 ± 0.087 | 1.12 ± 0.05 | 1.09 ± 0.09 | 1.19 ± 0.066
24 | GTF2A1 (UniProt P52655) | 0.961 ± 0.058 | 0.998 ± 0.014 | 1.03 ± 0.074 | 0.992 ± 0.01 | 0.992 ± 0.054 | 0.9 ± 0.075 | 0.951 ± 0.097 | 0.97 ± 0.028
25 | MARS (UniProt P56192) | 1.07 ± 0.059 | 1.09 ± 0.098 | 1.12 ± 0.14 | 1.18 ± 0.2 | 1.24 ± 0.21 | 1.21 ± 0.24 | 1.24 ± 0.22 | 1.16 ± 0.23
26 | SUCLG1 (UniProt P53597) | 0.958 ± 0.08 | 0.942 ± 0.063 | 0.956 ± 0.062 | 0.921 ± 0.071 | 0.936 ± 0.064 | 0.915 ± 0.044 | 0.922 ± 0.083 | 0.906 ± 0.065
27 | KIF11 (UniProt P52732) | 0.983 ± 0.022 | 0.998 ± 0.015 | 0.972 ± 0.012 | 0.954 ± 0.025 | 0.945 ± 0.022 | 0.963 ± 0.02 | 0.976 ± 0.015 | 0.937 ± 0.021
28 | SLC25A1 (UniProt P53007) | 1.09 ± 0.064 | 1.08 ± 0.048 | 0.989 ± 0.057 | 1.1 ± 0.11 | 1.1 ± 0.11 | 1.14 ± 0.19 | 1.08 ± 0.04 | 1.09 ± 0.073
29 | UniProt P78344 and related entries | 0.948 ± 0.036 | 0.96 ± 0.053 | 0.963 ± 0.015 | 0.98 ± 0.051 | 1.01 ± 0.033 | 1.05 ± 0.046 | 1.05 ± 0.035 | 1.09 ± 0.063
30 | RASSF2 (UniProt P50749) | 1.04 ± 0.054 | 1.03 ± 0.096 | 1.02 ± 0.079 | 1.02 ± 0.11 | 0.98 ± 0.1 | 0.942 ± 0.051 | 0.97 ± 0.094 | 0.929 ± 0.12

Pulled one by one from the list above, two records:
Row | Target | NP40-soluble protein abundance (concentration: 0.1mM) | NP40-soluble protein abundance (concentration: 0.5mM) | NP40-soluble protein abundance (concentration: 1mM) | NP40-soluble protein abundance (concentration: 2mM) | NP40-soluble protein abundance (concentration: 4mM) | NP40-soluble protein abundance (concentration: 6mM) | NP40-soluble protein abundance (concentration: 8mM) | NP40-soluble protein abundance (concentration: 10mM)
26 | SUCLG1 (UniProt P53597) | 0.958 ± 0.08 | 0.942 ± 0.063 | 0.956 ± 0.062 | 0.921 ± 0.071 | 0.936 ± 0.064 | 0.915 ± 0.044 | 0.922 ± 0.083 | 0.906 ± 0.065
10 | EMD (UniProt P50402) | 0.994 ± 0.055 | 1.02 ± 0.043 | 1.09 ± 0.057 | 1.09 ± 0.046 | 1.11 ± 0.082 | 1.06 ± 0.08 | 1.12 ± 0.055 | 1.13 ± 0.038
